Experimental findings from PubChem BioAssay AID493014 (National Center for Advancing Translational Sciences (NCATS), 2011) are described below.

The assay in a line: qHTS Assay to Find Inhibitors of Chronic Active B-Cell Receptor Signaling. Particulars: ABC-DLBCL IkBa-CBG/CBR reporter, luminescence ratio (green luciferase fused to IkBa over red control in TMD8 lymphoma cells), 4 h. In a few lines:
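TMD8 human ABC-DLBCL cells with doxycycline-inducible IκBα–green luciferase fusion and unfused red luciferase, in 0.5% FBS medium; compounds up to 46 uM, 4 h at 37C. Green/red luminescence ratio, filter-overlap corrected, fitted to concentration-response curves.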
On the technique in general: In qHTS, concentration-response curves come from the screen itself.

Setting [1] is: measured here: CBR red luminescence, cell number.
Where [2] appears, read: measured here: IkBa-CBG green luminescence.

Some of the results follow. The main result of the screen is listed elsewhere. These columns were measured beside it and carry no call. Most of these compounds were active or inconclusive in the main read-out, so they are no random draw. Words in brackets tell the shape of the fitted curve; partial curves, single points and poor fits give uncertain potencies.

Broadly, the AC50 is the concentration at which the activity in the assay is half-maximal. Turning to `COc1ccccc1CC(=O)NC1CCC(C)CC1` (configuration not stated), under setting [1], the AC50 was 17.8 µM [rising, single point].

Take `CCOc1ccc(C2C(C(=O)Nc3cc(C)on3)c3ccccc3C(=O)N2CCN2CCOCC2)cc1` (configuration not stated): the AC50 under setting [1] is 3.16 µM [rising, full curve, poor fit].

`CC(C)COc1ccc(C(=O)Nc2sc3c(c2C(=O)O)CC(C)(C)OC3)cc1`: the AC50 under setting [1] is 4.47 µM [falling, full curve].

Take `CCCOc1ccc(C(=O)NCC(c2ccco2)N(C)C)cc1` (configuration not stated): the AC50 under setting [1] is 9.2 µM [rising, partial curve].

As for `CC1CCCC(NC(=O)COC(=O)c2cc(S(=O)(=O)N3CCCCC3)ccc2N2CCOCC2)C1C` (configuration not stated), the AC50 under setting [1] is 29.1 µM [rising, single point].

In the case of `COc1cccc(OCCOc2c(OC)cccc2OC)c1`, under setting [1], the AC50 was 3.55 µM [rising, full curve].

For `CS(=O)(=O)c1ccc(Cl)c(NC(=O)CSc2nncn2-c2ccccc2)c1`, under setting [1], the AC50 is 8.91 µM [rising, partial curve, poor fit].

For `O=C(c1cc(-c2cccc(Br)c2)nc2ccccc12)N1CCCC1`, under setting [1], the concentration at half-maximal activity (AC50) is 7.08 µM [falling, partial curve].

On to `COc1ccccc1NC(=O)C1=C(C)Nc2nc(-c3ccc(N(C)C)cc3)nn2C1c1ccncc1` (configuration not stated), for which the AC50 under setting [1] is 17.8 µM [falling, single point].

For the molecule `O=C(/C=C/c1ccccc1[N+](=O)[O-])NCCc1ccc(F)cc1`, under setting [1], the AC50 was 35.5 µM [falling, single point].

Regarding `CCOc1ncccc1C(=O)OC(C)C(=O)Nc1ccc(Cl)cn1` (configuration not stated), the AC50 is 18.4 µM [falling, single point] under setting [1] and 20.6 µM [rising, partial curve, poor fit] under setting [2].

Regarding `Cc1ccc(O)c(C2=Nc3ccccc3N=C(c3cccc([N+](=O)[O-])c3)C2)c1`, under setting [1], the AC50 is 14.1 µM [rising, partial curve].

Regarding `CC(=O)c1ccc(-n2nnnc2SCC(=O)NC2CCCCC2)cc1`, the AC50 under setting [1] is 10 µM [falling, partial curve].

As to `COc1cc(C)ccc1S(=O)(=O)N1CCCCCC1`, under setting [1], the AC50 was 3.55 µM [rising, partial curve, poor fit].

Consider `C/C(CC(C)(C)C1CCCCC1)=N\NC(N)=S`, for which, under setting [1], the AC50 was 11.6 µM [falling, partial curve, poor fit].

On to `COC(=O)c1ccc(N2CN=C(c3ccc(C)cc3)NC2=S)cc1`, for which the AC50 under setting [1] is 6.51 µM [falling, partial curve].

With `Cn1c(SCc2ccccc2)nnc1-c1c[nH]c2ccccc12`, under setting [1], the half-maximal activity concentration (AC50) is 0.82 µM [rising, full curve, poor fit].

Consider `Cc1ccc(C(=O)c2cccc(N)c2)cc1C`, for which the AC50 under setting [1] is 5.62 µM [falling, partial curve, poor fit].

Take `CC1(C)Oc2ccc3ccc(=O)oc3c2C[C@H]1O[C@@H]1O[C@H](CO)[C@@H](O)[C@H](O)[C@H]1O`: the AC50 under setting [1] is 2.31 µM [rising, full curve, poor fit].

Turning to `C=CCNC(=S)NC(=O)c1oc2ccccc2c1C`, the concentration at half-maximal activity (AC50) under setting [1] is 0.0891 µM [rising, full curve, poor fit].

Consider `O=C(NC(=S)Nc1ccc2c(c1)OCO2)c1ccccc1`, for which, under setting [1], the concentration at half-maximal activity (AC50) is 11.2 µM [falling, partial curve].

`Cc1cc(C)c2c(CCl)cc(=O)oc2c1`: the AC50 under setting [1] was 0.0891 µM [rising, full curve, poor fit].

As for `O=C1OCC(CO)(CO)N=C1NNc1ccccc1[N+](=O)[O-]`, the AC50 under setting [1] was 0.224 µM [rising, full curve, poor fit].

Regarding `CCn1c(SC)nnc1-c1c[nH]c2ccccc12`, the concentration at half-maximal activity (AC50) under setting [1] is 29.1 µM [rising, partial curve, poor fit].

For `Cc1ccc(-c2ccccc2NC(=O)CS(=O)CC(=O)Nc2ccc(C)c(Cl)c2)o1` (configuration not stated), the AC50 reads like this: under setting [1], 0.708 µM [rising, full curve, poor fit]; under setting [2], 15.8 µM [falling, partial curve].

In the case of `CS(=O)(=O)N(CCc1ccccc1)CC(N)=O`, the AC50 under setting [1] was 6.51 µM [rising, single point].

Take `CN1CCN(c2nc3c(c(=O)[nH]c(=O)n3C)n2Cc2cccc(Br)c2)CC1`: the AC50 under setting [1] was 14.1 µM [rising, single point].

Take `Cc1cc(C(=O)Nc2cccc3ncccc23)no1`: the AC50 under setting [1] was 7.94 µM [falling, partial curve].

With `Cc1ccc(-n2cc(CNCCc3ncc(C)[nH]3)c(-c3ccc(F)cc3)n2)cc1`, under setting [2], the AC50 was 12.6 µM [falling, partial curve].

Consider `CCC(=O)C1=C(N2CCCC2)CC(C)(C)CC1=O`, for which the AC50 under setting [1] was 32.6 µM [rising, single point].

Regarding `O=C(C1=C[C@H](c2ccc3c(c2)OCO3)C[C@H](OCc2ccc(CO)cc2)O1)N1CCN(Cc2ccc3c(c2)OCO3)CC1`, the concentration at half-maximal activity (AC50) under setting [1] is 22.4 µM [falling, partial curve, poor fit].

As to `COc1ccc(N(Cc2ccccc2)C(=O)CSc2nnc(Cn3nnc4ccccc43)o2)cc1`, under setting [1], the AC50 was 25.9 µM [falling, partial curve, poor fit].

Consider `O=C(C1CCCCC1)N1CCN=C1SCc1cccnc1`, for which, under setting [1], the AC50 is 18.4 µM [falling, single point].

Regarding `COC(=O)c1ccccc1NC(=O)c1cccc(COc2ccccc2Cl)c1`, the half-maximal activity concentration (AC50) under setting [1] was 10.3 µM [rising, single point].

Take `COc1ccc(NC(=O)C2CC(c3cc(OC)c(OC)c(OC)c3)=NO2)cc1OC` (configuration not stated): the AC50 under setting [1] was 23.1 µM [falling, single point].

In the case of `Cc1cc(N2C(=O)c3ccccc3C2=O)n(C)n1`, under setting [1], the half-maximal activity concentration (AC50) was 0.398 µM [rising, full curve, poor fit].

Regarding `CC(C)c1ccc(C(=O)NC(=S)NCc2cccnc2)cc1`, the half-maximal activity concentration (AC50) under setting [1] was 0.259 µM [rising, full curve, poor fit].

`CC(C)NC(=S)NCc1cccnc1`: the half-maximal activity concentration (AC50) under setting [1] is 6.51 µM [rising, partial curve, poor fit].

Consider `Cn1nnnc1SCc1ccc(F)cc1`, for which the AC50 under setting [1] was 0.631 µM [rising, full curve, poor fit].

For `C=C1C(=O)C=C2CN(C(=O)c3ccccc3)[C@@](Cc3ccc(F)cc3)(C(=O)OC)[C@@H]12`, the half-maximal activity concentration (AC50) reads like this: under setting [1], 2.59 µM [falling, partial curve]; under setting [2], 2.91 µM [falling, partial curve, poor fit].

In the case of `C(=N\Nc1nc2ccccc2s1)/c1ccc2c(c1)OCO2`, the half-maximal activity concentration (AC50) under setting [1] was 13 µM [falling, partial curve, poor fit].

`CC(C)(C)NC(=O)CSc1nnc(Cc2ccc3c(c2)OCO3)n1C1CCCCC1`: the AC50 under setting [1] was 5.62 µM [falling, single point].

`CCCc1ccc(OCc2ccc(C(=O)O)o2)c(OC)c1`: the concentration at half-maximal activity (AC50) under setting [1] was 0.411 µM [falling, full curve].

Consider `CCn1c(Cc2ccccc2)nnc1SCC(=O)Nc1ccc(S(N)(=O)=O)cc1`, for which the half-maximal activity concentration (AC50) under setting [1] is 1.03 µM [rising, partial curve, poor fit].

`C/C(CC(=O)Nc1ccccn1)=N\NC(=O)c1ccccc1`: the AC50 under setting [1] was 16.4 µM [falling, partial curve].

Take `O=C(N/N=C\c1cn[nH]c1-c1ccccc1)c1cccs1`: the AC50 under setting [1] is 2.31 µM [falling, partial curve].

For `CCOC(=O)c1cc(C(=O)Nc2ccccc2F)nn1C`, the concentration at half-maximal activity (AC50) under setting [1] is 5.8 µM [falling, partial curve].

Take `Cc1cccc(C)c1C(OCCN(C)C)C1CCCCC1` (configuration not stated): the half-maximal activity concentration (AC50) under setting [1] is 20.6 µM [falling, single point].

As to `COc1ccc(/C=C2\SC(=S)N(CCC(=O)Nc3cccc(C(=O)O)c3)C2=O)cc1OC`, under setting [1], the AC50 is 14.1 µM [falling, partial curve, poor fit].

For the molecule `Cn1ccsc1=NC(=O)c1ccc(S(C)(=O)=O)c([N+](=O)[O-])c1`, the AC50 under setting [1] is 12.6 µM [falling, partial curve].

With `O=C(COC(=O)CNC(=O)c1ccccc1Cl)Nc1ccccc1Cl`, under setting [1], the AC50 is 29.1 µM [rising, single point].

For the molecule `Cc1nc(S(=O)(=O)Cc2ccccc2Cl)nc2c1CCC2`, the concentration at half-maximal activity (AC50) under setting [1] was 0.562 µM [rising, full curve, poor fit].

As for `Nc1c(N2CCOCC2)cc(Cl)c2nonc12`, the half-maximal activity concentration (AC50) under setting [1] is 3.55 µM [rising, full curve, poor fit] and the AC50 under setting [2] is 8.91 µM [falling, partial curve, poor fit].

As for `CCCc1c(O)nc(SCC(=O)NCCc2ccc(OC)c(OC)c2)[nH]c1=O`, the concentration at half-maximal activity (AC50) under setting [1] is 2.91 µM [rising, partial curve, poor fit].

With `CCCCN1C(=O)c2ccc(C(=O)Nc3ccc(S(=O)(=O)N(C)C)cc3)cc2C1=O`, under setting [2], the half-maximal activity concentration (AC50) is 4.11 µM [rising, partial curve, poor fit].

As for `COc1ccc(-n2c(SCC(=O)Nc3ccc(C(N)=O)cc3)nc3ccccc3c2=O)cc1OC`, the AC50 under setting [1] was 6.31 µM [rising, single point].

Regarding `C/C(=N\NC(=O)C1CC1)c1ccc(Cl)cc1`, under setting [1], the half-maximal activity concentration (AC50) was 0.291 µM [rising, full curve, poor fit].

Consider `COc1cc(CC(=O)OCC(=O)Nc2cccc([N+](=O)[O-])c2)cc(OC)c1OC`, for which the concentration at half-maximal activity (AC50) under setting [1] is 4.11 µM [rising, partial curve, poor fit].

On to `Oc1cccc2ccc(/C=C/c3ccccc3Br)nc12`, for which the AC50 under setting [1] was 2.82 µM [rising, single point].

With `C[C@H](CO)N1C[C@H](C)[C@@H](CN(C)Cc2ccc(Oc3ccccc3)cc2)Oc2c(NC(=O)c3ccncc3)cccc2C1=O`, the AC50 under setting [1] was 29.1 µM [falling, single point].

In the case of `Cc1c(CC(C)C)nc(N)c(C#N)c1-c1ccccc1`, the half-maximal activity concentration (AC50) under setting [1] is 5.8 µM [falling, single point].

Take `O=C(O)c1ccc(N/N=C/c2cn(Cc3ccc(F)cc3)c3ccccc23)cc1`: the concentration at half-maximal activity (AC50) under setting [2] was 2 µM [rising, full curve, poor fit].

Regarding `C=CCn1cnc2c(NCc3ccccc3)ncnc21`, under setting [1], the AC50 is 3.66 µM [falling, partial curve, poor fit].
